According to paper PMC5993538, “The plant-specific transcription factors CBP60g and SARD1 are targeted by a Verticillium secretory protein VdSCP41 to modulate immunity”:
These are yes or no findings as the source states them, for the method shown. In cells and extracts the contact can be indirect. Where a sequence is shown, tags or fusion partners need not be part of it.

Protein sequences, listed by entry. Tags and fused reporters are not part of them.
UniProt Q9C9T2: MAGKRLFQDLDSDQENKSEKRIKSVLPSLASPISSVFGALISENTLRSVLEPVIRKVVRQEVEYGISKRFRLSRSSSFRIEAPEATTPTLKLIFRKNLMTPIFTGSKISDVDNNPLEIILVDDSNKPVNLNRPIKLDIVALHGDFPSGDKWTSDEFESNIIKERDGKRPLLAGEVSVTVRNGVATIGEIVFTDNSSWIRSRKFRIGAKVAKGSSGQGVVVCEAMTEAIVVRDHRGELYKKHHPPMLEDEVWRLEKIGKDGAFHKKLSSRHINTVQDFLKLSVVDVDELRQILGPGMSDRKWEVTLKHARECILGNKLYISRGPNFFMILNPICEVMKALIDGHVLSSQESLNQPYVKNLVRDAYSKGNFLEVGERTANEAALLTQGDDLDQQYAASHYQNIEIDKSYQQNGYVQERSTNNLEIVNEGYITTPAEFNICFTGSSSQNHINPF

Molecular target: T1, CLuc-CBP60g (Arabidopsis) (UniProt F4K2R6)
T1 sequence: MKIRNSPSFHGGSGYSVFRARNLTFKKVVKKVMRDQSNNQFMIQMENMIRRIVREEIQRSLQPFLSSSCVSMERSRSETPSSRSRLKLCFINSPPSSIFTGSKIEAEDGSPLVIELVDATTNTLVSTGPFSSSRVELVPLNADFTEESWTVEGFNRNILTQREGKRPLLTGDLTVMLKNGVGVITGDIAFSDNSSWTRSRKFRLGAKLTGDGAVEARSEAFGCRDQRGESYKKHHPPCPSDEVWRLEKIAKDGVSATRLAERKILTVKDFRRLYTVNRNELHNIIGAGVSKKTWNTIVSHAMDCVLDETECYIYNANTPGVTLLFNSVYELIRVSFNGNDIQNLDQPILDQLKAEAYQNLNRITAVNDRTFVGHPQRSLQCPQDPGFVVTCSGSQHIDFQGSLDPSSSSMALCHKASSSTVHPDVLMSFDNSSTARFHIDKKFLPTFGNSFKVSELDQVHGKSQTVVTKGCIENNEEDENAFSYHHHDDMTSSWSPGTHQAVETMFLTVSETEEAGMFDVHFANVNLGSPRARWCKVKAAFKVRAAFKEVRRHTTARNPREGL
Test: split reporter; luciferase complementation imaging in N. benthamiana leaves, Agrobacterium-infiltrated NLuc- and CLuc-tagged constructs, LUC activity 2 days post infiltration, CCD imaging and microplate luminometer

In the case of “NLuc-tagged SARD1 (from UniProt Q9C9T2 1-451)”, the binding is reported as “no binding”.
